Numbering of substitutions follows the chain as printed. These are yes or no findings as the source states them, for the method shown. Binding can be weak; no strength is given. Sequences can lack the tags named with a protein.
Tests used:
Experiment in all cases: two-hybrid; Matchmaker Two-Hybrid System 2, BD-PYL3 or mutants (pGBKT7, bait) and AD-HAB1 (pGADT7, prey) in S. cerevisiae AH109, growth on SD-TLHA at 30 °C; without ABA
[1] = target: T1, BD-PYL3 V108K V107F V192F (Arabidopsis thaliana) (UniProt Q9SSM7)
T1 sequence: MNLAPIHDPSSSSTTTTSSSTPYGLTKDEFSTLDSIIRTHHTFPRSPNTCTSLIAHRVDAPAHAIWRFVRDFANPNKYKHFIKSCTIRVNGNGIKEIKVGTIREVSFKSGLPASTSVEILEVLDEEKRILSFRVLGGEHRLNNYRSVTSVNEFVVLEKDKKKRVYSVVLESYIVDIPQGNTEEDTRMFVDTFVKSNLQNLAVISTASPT

[2] = target: T2, BD-PYL3 V108K V107F V192F L111F (Arabidopsis thaliana) (UniProt Q9SSM7)
T2 sequence: T1 sequence with L111F

[3] = target: T3, BD-PYL3 V108K V107L V192F (Arabidopsis thaliana) (UniProt Q9SSM7)
T3 sequence: T1 sequence with F107L

[4] = target: T4, BD-PYL3 V108K V107L V192F L111F (Arabidopsis thaliana) (UniProt Q9SSM7)
T4 sequence: T1 sequence with F107L, L111F

Measured: binding

AD-HAB1 (169-511) (Arabidopsis thaliana) (domain or fragment)
binds: all assays above
